Test results reported in PubChem BioAssay AID624058 (Broad Institute, 2012).
Inconclusive means that the source gave no clear call. Such entries were picked first, then a sample of the others. Active and inactive are the calls of the source. No rule for the calls is given here.

Test: EDDHA-treated Pseudomonas aeruginosa growth inhibition – OD600, ATCC 15692, cherry-pick, set 2, dose response (AID 624058)
Conditions: P. aeruginosa ATCC 15692 with EDDHA, OD600, 24-30 h; at 50 µM (top of the series) unless noted

Growth inhibition, inactive:
O=CN(c1ccccc1)c1ccc2ccccc2c1 11.5%
Cn1cccc1C(C#N)c1cccc(F)c1C#N (stereo unspecified) -7.44% [at 16 µM]
CCOC(=O)N1CCN(c2ccc(Cl)cc2)CC1 -3.24%

Growth inhibition, inconclusive:
N#CC(c1cccc(Cl)c1)c1ncc(C(F)(F)F)cc1Cl (stereo unspecified) 15.5%
O=S1(=O)CCOC[C@H](c2ccccc2)N1Cc1cccc(Cl)c1 30.1%
Cc1ccc(O)c(C(=O)/C=C/c2ccc3c(c2)OCCO3)c1 41.5%
Cc1cc(C)nc(N(C#N)Cc2ccccc2)n1 9.14%
COc1ccc(CNCc2cccc(Cl)c2)cc1 27.1%
CCC(C)NS(=O)(=O)c1ccc(OC)c(Cl)c1Cl (stereo unspecified) 6.31%
O=C1C=C(c2cc(F)ccc2F)C[C@@H](c2ccc(F)cc2)C1 -0.894%
COC(=O)c1cc(-c2ccc(OC)cc2)on1 -2.35%
CO/N=C/c1cn(-c2ccc(Cl)cc2)nn1 9.78%
Cc1ccc2nc(-c3ccc4c(c3)OCCO4)cn2c1 -0.311%
N#CC(c1ccc(Cl)cc1)c1cccc(Cl)n1 (stereo unspecified) -69.3%
c1ccn2cc(-c3ccc4c(c3)OCCO4)nc2c1 4.39%
O=C(NCC1CC1)c1cc([N+](=O)[O-])cc([N+](=O)[O-])c1 16.1%

Quoted from the entries so far, 2 compounds:
Growth inhibition, inconclusive:
Cc1ccc(O)c(C(=O)/C=C/c2ccc3c(c2)OCCO3)c1 41.5%
Cc1cc(C)nc(N(C#N)Cc2ccccc2)n1 9.14%
